No constants are given. Whether binding was seen depends on the method and setting. Binding seen in cells or lysates may run through a third protein. Some binding calls cover weakened binding; strength is not graded here.
Key:
[1] = target: Upstream binding factor (UBF) (human (endogenous in MCF7)) (UniProt P17480); assay: co-IP; nuclear extracts of MCF7 cells (MCF7/Ctrl) or MCF7 cells stably expressing Wnt5a (MCF7/Wnt5a); precipitated with antibodies against UBF or the autoimmune serum S57299 against Pol I, Protein G Sepharose; beads washed with 1X PBS, 1 mM PMSF, 0.2% NP-40; immunoblots
[2] = target: Upstream binding factor (UBF) (human (endogenous in MCF7)) (UniProt P17480); assay: condition: only in MCF7 cells stably expressing Wnt5a; co-IP; nuclear extracts of MCF7 cells stably expressing Wnt5a (MCF7/Wnt5a); precipitated with antibodies against UBF, Protein G Sepharose; beads washed with 1X PBS, 1 mM PMSF, 0.2% NP-40; immunoblots

Protein sequences, listed by entry. Tags and fused reporters are not part of them.
UniProt P17480: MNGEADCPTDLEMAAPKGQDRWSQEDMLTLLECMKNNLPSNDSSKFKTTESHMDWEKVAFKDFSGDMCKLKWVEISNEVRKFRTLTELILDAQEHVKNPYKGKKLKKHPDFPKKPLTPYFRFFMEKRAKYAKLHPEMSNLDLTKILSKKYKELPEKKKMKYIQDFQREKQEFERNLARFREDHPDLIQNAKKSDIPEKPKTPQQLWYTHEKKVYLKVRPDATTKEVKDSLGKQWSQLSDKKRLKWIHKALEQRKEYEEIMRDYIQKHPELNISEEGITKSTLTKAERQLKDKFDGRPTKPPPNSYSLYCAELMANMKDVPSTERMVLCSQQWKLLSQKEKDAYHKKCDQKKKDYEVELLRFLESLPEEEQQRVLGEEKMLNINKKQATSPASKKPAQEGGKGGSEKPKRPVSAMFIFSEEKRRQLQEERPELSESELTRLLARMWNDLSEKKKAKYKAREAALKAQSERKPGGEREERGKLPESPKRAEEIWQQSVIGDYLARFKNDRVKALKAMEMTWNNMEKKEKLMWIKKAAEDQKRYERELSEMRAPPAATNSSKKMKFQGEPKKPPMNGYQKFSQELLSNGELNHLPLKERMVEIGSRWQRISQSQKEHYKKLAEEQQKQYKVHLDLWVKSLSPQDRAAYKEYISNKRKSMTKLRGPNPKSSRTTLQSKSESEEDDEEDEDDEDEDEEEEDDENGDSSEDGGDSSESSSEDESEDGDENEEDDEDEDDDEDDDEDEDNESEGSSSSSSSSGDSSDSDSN
UniProt Q9NRC8: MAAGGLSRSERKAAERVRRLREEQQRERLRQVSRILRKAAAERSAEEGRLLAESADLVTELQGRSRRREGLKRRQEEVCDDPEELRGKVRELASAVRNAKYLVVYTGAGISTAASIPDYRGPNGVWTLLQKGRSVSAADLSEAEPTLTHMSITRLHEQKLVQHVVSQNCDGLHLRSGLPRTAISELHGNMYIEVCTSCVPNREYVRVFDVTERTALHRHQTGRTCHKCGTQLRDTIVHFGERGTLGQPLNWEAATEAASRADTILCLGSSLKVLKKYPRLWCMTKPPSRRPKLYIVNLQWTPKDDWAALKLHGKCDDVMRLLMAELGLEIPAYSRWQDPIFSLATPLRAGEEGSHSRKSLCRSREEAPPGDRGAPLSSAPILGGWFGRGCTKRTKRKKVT

| binding [1] | binding [2] | Molecule |
| --- | --- | --- |
| binds | no binding | Sirtuin 7 (SIRT7) (from UniProt Q9NRC8 1-400) (enzyme) |
| binds |  | Dishevelled1 (DVL1) (protein, UniProt O14640 1-695) MAETKIIYHMDEEETPYLVKLPVAPERVTLADFKNVLSNRPVHAYKFFFKSMDQDFGVVKEEIFDDNAKLPCFNGRVVSWLVLAEGAHSDAGSQGTDSHTDLPPPLERTGGIGDSRPPSFHPNVASSRDGMDNETGTESMVSHRRERARRRNREEAARTNGHPRGDRRRDVGLPPDSASTALSSELESSSFVDSDEDGSTSRLSSSTEQSTSSRLIRKHKRRRRKQRLRQADRASSFSSITDSTMSLNIVTVTLNMERHHFLGISIVGQSNDRGDGGIYIGSIMKGGAVAADGRIEPGDMLLQVNDVNFENMSNDDAVRVLREIVSQTGPISLTVAKCWDPTPRSYFTVPRADPVRPIDPAAWLSHTAALTGALPRYGTSPCSSAVTRTSSSSLTSSVPGAPQLEEAPLTVKSDMSAVVRVMQLPDSGLEIRDRMWLKITIANAVIGADVVDWLYTHVEGFKERREARKYASSLLKHGFLRHTVNKITFSEQCYYVFGDLCSNLATLNLNSGSSGTSDQDTLAPLPHPAAPWPLGQGYPYQYPGPPPCFPPAYQDPGFSYGSGSTGSQQSEGSKSSGSTRSSRRAPGREKERRAAGAGGSGSESDHTAPSGVGSSWRERPAGQLSRGSSPRSQASATAPGLPPPHPTTKAYTVVGGPPGGPPVRELAAVPPELTGSRQSFQKAMGNPCEFFVDIM |

Reference: article PMC4976976
